Laboratory results taken from publication PMC4765788, “Role of a chalcone isomerase-like protein in flavonoid biosynthesis in Arabidopsis thaliana” (Journal of Experimental Botany, 2015).
No constants are given. Whether binding was seen depends on the method and setting. Some entries that bind do so weakly or less than the wild type. Sequences can lack the tags named with a protein.

Key:
[1] = molecular target: T1, BD-CHIL (Arabidopsis thaliana) (UniProt Q8VZW3); assay: two-hybrid; yeast co-transformed with BD and AD fusions; growth on SD-Trp-Leu-His; also tested on SD-Trp-Leu-His-Ade
T1 sequence: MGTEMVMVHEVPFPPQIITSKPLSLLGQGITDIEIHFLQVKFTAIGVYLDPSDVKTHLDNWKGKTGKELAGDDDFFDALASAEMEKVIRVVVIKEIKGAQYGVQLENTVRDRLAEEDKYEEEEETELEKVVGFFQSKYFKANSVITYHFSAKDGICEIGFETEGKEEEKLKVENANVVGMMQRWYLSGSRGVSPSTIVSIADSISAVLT

[2] = molecular target: T2, BD-TT2 (Arabidopsis thaliana) (UniProt Q9FJA2); assay: as above
T2 sequence: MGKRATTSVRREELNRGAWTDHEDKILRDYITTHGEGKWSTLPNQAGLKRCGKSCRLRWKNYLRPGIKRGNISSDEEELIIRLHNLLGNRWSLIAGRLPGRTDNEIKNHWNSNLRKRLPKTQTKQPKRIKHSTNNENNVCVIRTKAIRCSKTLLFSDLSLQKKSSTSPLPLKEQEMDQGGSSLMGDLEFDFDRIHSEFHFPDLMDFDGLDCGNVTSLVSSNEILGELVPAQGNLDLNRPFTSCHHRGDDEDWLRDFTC

B1: recombinant TT5 protein (chalcone isomerase), His-tagged (enzyme, Arabidopsis thaliana, UniProt P41088 1-246, looked up)
chain: MSSSNACASPSPFPAVTKLHVDSVTFVPSVKSPASSNPLFLGGAGVRGLDIQGKFVIFTVIGVYLEGNAVPSLSVKWKGKTTEELTESIPFFREIVTGAFEKFIKVTMKLPLTGQQYSEKVTENCVAIWKQLGLYTDCEAKAVEKFLEIFKEETFPPGSSILFALSPTGSLTVAFSKDDSIPETGIAVIENKLLAEAVLESIIGKNGVSPGTRLSVAERLSQLMMKNKDEKEVSDHSVEEKLAKEN
notes: TT5, chalcone isomerase, Arabidopsis thaliana, At3g55120; ORF cloned into pQE-30; pQE-30 usually adds an N-terminal His6 tag (surmised); also called CHI
In the case of B1, the binding [1] is reported as “binds”.

B2: AD-TT8 (protein, UniProt Q9FT81 1-518)
chain: MDESSIIPAEKVAGAEKKELQGLLKTAVQSVDWTYSVFWQFCPQQRVLVWGNGYYNGAIKTRKTTQPAEVTAEEAALERSQQLRELYETLLAGESTSEARACTALSPEDLTETEWFYLMCVSFSFPPPSGMPGKAYARRKHVWLSGANEVDSKTFSRAILAKSAKIQTVVCIPMLDGVVELGTTKKVREDVEFVELTKSFFYDHCKTNPKPALSEHSTYEVHEEAEDEEEVEEEMTMSEEMRLGSPDDEDVSNQNLHSDLHIESTHTLDTHMDMMNLMEEGGNYSQTVTTLLMSHPTSLLSDSVSTSSYIQSSFATWRVENGKEHQQVKTAPSSQWVLKQMIFRVPFLHDNTKDKRLPREDLSHVVAERRRREKLNEKFITLRSMVPFVTKMDKVSILGDTIAYVNHLRKRVHELENTHHEQQHKRTRTCKRKTSEEVEVSIIENDVLLEMRCEYRDGLLLDILQVLHELGIETTAVHTSVNDHDFEAEIRAKVRGKKASIAEVKRAIHQVIIHDTNL
B2 was tested, and the binding [2] was “binds”.
